Drawing on the odorant receptor screen of Mainland et al. (2015), this text covers odorant receptor activation for 6 compounds.

The other results are listed elsewhere or left out. Single wells; the ratio to wells without odorant was worked out here, and repeats agree poorly.

Among the test systems are OR13C3 G2C clone 1339; OR13C3 clone 1390; OR13C4 clone 1094; OR13C7 Indel clone 1100; OR13C8 clone 1095; OR13C9 F197L clone 1096; OR13D1 clone 1338; OR13D1 clone 1484; OR13G1 I132V clone 1036; OR13H1 clone 1497; OR13J1 H133R clone 1098; OR14A16 Indel clone 1030; OR14A2 clone 1042; OR14J1 clone 1318; OR14J1 clone 1391; OR14K1 clone 1043.
Assay in all cases: odorant receptor activation (CRE luciferase / Renilla) (fold of no-odor wells); higher = more activation
Common to all, as to conditions: 100 µM

Assay [1] has as its system OR13C5 S18F/L69M/P79S/L86V/N128S/M258T clone 1477.
For assay [2], the system named is OR13F1 F18S/M101V/V134I/I270T clone 1097.
Assay [3] has as its system OR14C36 G225R/D231Y clone 1028.
Assay [4] has as its system OR14I1 V36A/D50N/S170N clone 1479.

With `C=CCc1ccc(OC(C)=O)c(OC)c1` [eugenol acetate], the odorant receptor activation with OR13C3 G2C clone 1339 was found to be 1.91; with OR13C3 clone 1390, 1.6; with OR13C4 clone 1094, 1.37; in assay [1], 1.65; in the assay on OR13C7 Indel clone 1100 it was 1.49; in the assay with OR13C8 clone 1095, 1.64. The odorant receptor activation in the assay on OR13C9 F197L clone 1096 is 1.74; in the assay on OR13D1 clone 1338, 1.55; in the assay on OR13D1 clone 1484, 2.05; in assay [2], 1.69; with OR13G1 I132V clone 1036, 1.7; in the assay with OR13H1 clone 1497 it was 1.65. In addition, the odorant receptor activation in the assay on OR13J1 H133R clone 1098 amounted to 1.95; with OR14A16 Indel clone 1030, 1.88; in the assay with OR14A2 clone 1042, 1.61; in assay [3], 1.86; in assay [4], 1.51; with OR14J1 clone 1318 it was 1.86. The odorant receptor activation with OR14J1 clone 1391 was 1.65; in the assay on OR14K1 clone 1043 it was 1.63.

As for `C=CC(C)(O)CCC=C(C)C` (stereo not given) [linalool], the odorant receptor activation in the assay with OR13C3 G2C clone 1339 is 0.941; in the assay on OR13C3 clone 1390, 0.61; in the assay on OR13C4 clone 1094 it was 0.998; in [1], 0.969; in the assay on OR13C7 Indel clone 1100, 1.18; in the assay with OR13C8 clone 1095, 1.19. Also, the odorant receptor activation amounted to 1.17 in the assay on OR13C9 F197L clone 1096; 0.986 in the assay on OR13D1 clone 1338; 1.01 in the assay on OR13D1 clone 1484; 1.23 in [2]; 1.03 with OR13G1 I132V clone 1036; 0.92 in the assay on OR13H1 clone 1497. Further, the odorant receptor activation in the assay with OR13J1 H133R clone 1098 turned out to be 0.973; in the assay on OR14A16 Indel clone 1030 it was 1.13; in the assay with OR14A2 clone 1042 it was 0.954; in assay [3] it was 1.15; in [4] it was 0.992; with OR14J1 clone 1318, 0.86. In addition, the odorant receptor activation with OR14J1 clone 1391 came out at 0.833; in the assay with OR14K1 clone 1043 it was 0.998.

Consider `CCCCCCCCOC(C)=O` [octyl acetate], for which the odorant receptor activation in the assay with OR13C3 G2C clone 1339 is 1.1; in the assay with OR13C3 clone 1390, 0.717; with OR13C4 clone 1094, 0.874; in assay [1] it was 1.06; with OR13C7 Indel clone 1100 it was 1.12; in the assay on OR13C8 clone 1095, 1.2. Besides, the odorant receptor activation in the assay on OR13C9 F197L clone 1096 amounted to 1.31; with OR13D1 clone 1338, 1.4; in the assay with OR13D1 clone 1484, 0.962; in [2] it was 1.27; in the assay on OR13G1 I132V clone 1036, 0.996; with OR13H1 clone 1497, 0.947. Moreover, the odorant receptor activation in the assay on OR13J1 H133R clone 1098 is 1.15; in the assay on OR14A16 Indel clone 1030, 1.07; with OR14A2 clone 1042, 0.994; in assay [3], 1.5; in assay [4] it was 0.848; in the assay with OR14J1 clone 1318 it was 1.01. Also, the figures for the odorant receptor activation in the assay with OR14J1 clone 1391 and in the assay with OR14K1 clone 1043 were 0.822 and 0.875, respectively.

As for `CC1CCC(C(C)C)C(O)C1` (single isomer, unassigned; (+)) [(+)-menthol], the odorant receptor activation amounted to 0.959 with OR13C3 G2C clone 1339; 0.692 with OR13C3 clone 1390; 21.4 with OR13C4 clone 1094; 1.25 in assay [1]; 11.3 in the assay with OR13C7 Indel clone 1100; 3.17 in the assay on OR13C8 clone 1095. The odorant receptor activation in the assay with OR13C9 F197L clone 1096 stood at 25.2; in the assay on OR13D1 clone 1338, 0.989; in the assay on OR13D1 clone 1484, 0.954; in assay [2], 2.45; with OR13G1 I132V clone 1036, 3.71; in the assay on OR13H1 clone 1497, 1.32. Also, the odorant receptor activation was determined as 2.96 in the assay with OR13J1 H133R clone 1098; 3.17 in the assay with OR14A16 Indel clone 1030; 3.61 with OR14A2 clone 1042; 3.73 in assay [3]; 1.08 in assay [4]; 1.14 with OR14J1 clone 1318. Moreover, the odorant receptor activation in the assay with OR14J1 clone 1391 is 1.16; with OR14K1 clone 1043, 3.23.

Take `CC1=CCC(C(C)(C)O)CC1` (stereo not given) [terpineol]: the odorant receptor activation in the assay with OR13C3 G2C clone 1339 amounted to 0.88; in the assay on OR13C3 clone 1390 it was 0.898; in the assay with OR13C4 clone 1094 it was 1.05; in [1] it was 0.812; in the assay with OR13C7 Indel clone 1100, 0.911; in the assay with OR13C8 clone 1095, 1.32. In addition, the odorant receptor activation with OR13C9 F197L clone 1096 was determined as 1.09; with OR13D1 clone 1338, 0.841; in the assay on OR13D1 clone 1484 it was 0.695; in assay [2] it was 1.17; in the assay with OR13G1 I132V clone 1036, 1.12; in the assay on OR13H1 clone 1497, 0.756. The odorant receptor activation was 1.57 in the assay on OR13J1 H133R clone 1098; 1.17 with OR14A16 Indel clone 1030; 1.1 in the assay with OR14A2 clone 1042; 0.844 in assay [3]; 0.689 in assay [4]; 0.832 in the assay on OR14J1 clone 1318. Also, the odorant receptor activation was determined as 1.21 in the assay on OR14J1 clone 1391 and 0.967 in the assay on OR14K1 clone 1043.

With `c1ccc(Oc2ccccc2)cc1` [diphenyl ether], the odorant receptor activation with OR13C3 G2C clone 1339 amounted to 1.02; in the assay with OR13C3 clone 1390, 0.941; in the assay with OR13C4 clone 1094, 0.877; in [1] it was 0.871; in the assay with OR13C7 Indel clone 1100 it was 0.905; in the assay on OR13C8 clone 1095, 0.93. The odorant receptor activation was 0.838 in the assay with OR13C9 F197L clone 1096; 0.925 in the assay on OR13D1 clone 1338; 1.07 with OR13D1 clone 1484; 0.878 in [2]; 1.02 with OR13G1 I132V clone 1036; 1.05 with OR13H1 clone 1497. The odorant receptor activation in the assay on OR13J1 H133R clone 1098 turned out to be 0.992; in the assay on OR14A16 Indel clone 1030, 0.945; with OR14A2 clone 1042, 1; in assay [3] it was 1.08; in assay [4] it was 1.02; with OR14J1 clone 1318 it was 0.87. Further, the values for the odorant receptor activation in the assay on OR14J1 clone 1391 and with OR14K1 clone 1043 were 1.34 and 0.938, respectively.
